These are yes or no findings as the source states them, for the method shown. Binding seen in cells or lysates may run through a third protein. Binding can be weak; no strength is given. Tags and fused reporters may be left off the sequences shown.
Tests used:
[1] = biological target: FLAG-tagged ADAM2 (ADAM2-FLAG) (mouse) (UniProt Q60718); experiment: co-IP; HEK293T cells co-transfected, harvested 48 h after transfection; NETN lysis buffer (20 mM Tris-HCl pH 7.5, 100 mM NaCl, 6 mM EDTA, 0.5% NP-40); 1 mg protein with 50 ul anti-HA, anti-GFP, anti-FLAG or anti-Myc mAb magnetic beads overnight at 4 C; five washes; western blotting; both directions of precipitation
[2] = biological target: HA-tagged PRSS21 (PRSS21-HA) (mouse) (UniProt Q9JHJ7); experiment: as above

Protein sequences, listed by entry. Tags and fused reporters are not part of them. Lines headed by an entry give the natural chain unless they say otherwise; changes in a name come on top.
UniProt Q60718: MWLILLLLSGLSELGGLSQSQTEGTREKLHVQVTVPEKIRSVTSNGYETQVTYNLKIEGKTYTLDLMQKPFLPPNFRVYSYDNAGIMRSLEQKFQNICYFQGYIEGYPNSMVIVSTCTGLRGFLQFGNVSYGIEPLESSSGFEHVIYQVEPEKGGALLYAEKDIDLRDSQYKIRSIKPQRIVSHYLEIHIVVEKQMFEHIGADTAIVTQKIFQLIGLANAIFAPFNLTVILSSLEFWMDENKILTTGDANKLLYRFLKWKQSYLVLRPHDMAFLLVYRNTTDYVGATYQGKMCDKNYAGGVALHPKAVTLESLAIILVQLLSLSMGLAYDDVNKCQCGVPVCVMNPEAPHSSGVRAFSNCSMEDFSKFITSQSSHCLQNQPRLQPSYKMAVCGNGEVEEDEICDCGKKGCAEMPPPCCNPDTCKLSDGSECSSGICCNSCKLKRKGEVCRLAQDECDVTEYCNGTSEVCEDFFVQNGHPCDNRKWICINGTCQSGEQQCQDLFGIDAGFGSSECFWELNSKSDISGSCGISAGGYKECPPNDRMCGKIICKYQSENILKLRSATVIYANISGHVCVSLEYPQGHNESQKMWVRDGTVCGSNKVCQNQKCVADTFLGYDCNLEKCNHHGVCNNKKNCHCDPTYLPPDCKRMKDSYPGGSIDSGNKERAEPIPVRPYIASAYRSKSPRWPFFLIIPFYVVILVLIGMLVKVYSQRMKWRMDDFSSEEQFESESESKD
UniProt Q9JHJ7: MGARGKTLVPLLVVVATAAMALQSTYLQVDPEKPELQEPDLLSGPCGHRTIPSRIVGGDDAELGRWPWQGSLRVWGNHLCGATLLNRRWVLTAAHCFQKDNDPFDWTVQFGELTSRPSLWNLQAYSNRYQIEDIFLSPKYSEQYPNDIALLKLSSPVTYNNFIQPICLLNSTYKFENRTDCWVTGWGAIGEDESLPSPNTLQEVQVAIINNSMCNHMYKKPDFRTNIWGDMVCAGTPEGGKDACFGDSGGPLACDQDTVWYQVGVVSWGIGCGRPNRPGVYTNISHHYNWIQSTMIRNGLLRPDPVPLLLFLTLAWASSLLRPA

binding [1]: binds
binding [2]: binds
B1: EGFP-tagged SPEM2 (SPEM2-EGFP fusion protein) (protein, UniProt Q8C5U4 1-503)
chain: MENQLWQNTLRCCEQYQESPQDAENILFLLLGLIILVNISINVATAMWQGLQNAIDKMIFWMNQKTEVVQVTECPPKEPQPANVQDVHIHCILDPVQVKMAQPTQCSSSSSHYFCKRSNDRRSRRRYGYQQGNLQIHQSSQQQGCLSHQQRLRNRPLSRGYPPFRKQPQGHKMSQMRPMPFFDMEDRDSLPEGHSCPHAKQPRRGWGSLCKPVRLASNVGLWGRQGGILASLPLPSLYLSPELRRLPKRVEAKSELRLQGFGPHYSQSRIWGTVEAEQWASSPPPPRRLLPNPSWVTVGYSSFPSGGHIPYDARDQWRRGTEGCEPPPAFVPRNPREVQGYRDHNSQAHRQNFSSHTHSQPNHSPPQSMGHVGYSSRESHEVRRRAPDWIEVFPSRHPLTTSTSLTALGEASYQRAPPASSGLMIPHSSQRLAEVQISDPTPPPTTFVPLSRNPGGNATYQVYDSLELKRQVQENRGRASSLPPPSTSASRPSLHRSRTGKLN

From paper PMC10904452
